The results in this text go back to the supplement of paper PMC4635364.

Where a name gives a salt, the structure may show the parent alone. This is one part of the list. This data set is noisy: repeats of one test often differ as much as different tests do.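 ReNCell VM, a human fetal ventral-midbrain neural progenitor line, was differentiated without mitogens. Blinded raters scored images stained for doublecortin (early neurons) or tyrosine hydroxylase (dopaminergic neurons) against untreated wells (0 = no change). Scores were averaged across repeats and both raters, and compounds averaging 2 or more were selected as hits for retesting.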

The test system of experiment [1] is ReNCell VM. Put plainly: neuronal differentiation score (DCX+ cell fraction vs untreated, manual image score) (score (-3 to 3)); higher = more neuronal differentiation. The following applies: 2 uM, 2 weeks.
In experiment [2] the test system is ReNCell VM. Description: dopaminergic neuron differentiation score (TH+ cell fraction vs untreated, manual image score) (score (0 to 3)); higher = more TH+ dopaminergic neuron differentiation. To be noted: 2 uM, 4 weeks, BDNF 10 ng/ml + GDNF 10 ng/ml.

Regarding `COc1cc(-c2coc3cc(OC)c(OC)c(OC)c3c2=O)cc(OC)c1OC`, the neuronal differentiation score in the experiment on ReNCell VM [1] (library: Spectrum) is inactive: 0. Moreover, in the experiment with ReNCell VM [2] (library: Spectrum), the “dopaminergic neuron differentiation score” value was inactive: 0.
As to `N[C@@H](CC(=O)O)C(=O)O` [L-Aspartic acid], the neuronal differentiation score in the experiment on ReNCell VM [1] (library: LOPAC) is inactive: 0. In addition, the “dopaminergic neuron differentiation score” value in the experiment on ReNCell VM [2] (library: LOPAC) was inactive: 0.
Take `Clc1ccc(COC(Cn2ccnc2)c2ccc(Cl)cc2Cl)cc1` (stereo not given) [Econazole nitrate]: in the experiment with ReNCell VM [1] (library: Prestwick), the neuronal differentiation score is inactive: 0. Further, the “dopaminergic neuron differentiation score” value with ReNCell VM [2] (library: Prestwick) is inactive: 0.
Turning to `CCS(=O)(=O)N(C)[C@H]1c2cc(C#N)ccc2OC(C)(C)[C@@H]1O` (racemic) [Chromanol 293B], the neuronal differentiation score in the experiment on ReNCell VM [1] (library: Tocriscreen) was inactive: 0. The “dopaminergic neuron differentiation score” value in the experiment with ReNCell VM [2] (library: Tocriscreen) is inactive: 0.
For `CC(C)C1=CC2=CC[C@@H]3[C@](C)(CCC[C@@]3(C)C(=O)O)[C@H]2CC1` [Abietic Acid], the neuronal differentiation score with ReNCell VM [1] (library: Phytochemical) is inactive: 1. The “dopaminergic neuron differentiation score” value in the experiment with ReNCell VM [2] (library: Phytochemical) was inactive: 0.
Take `CC1=CC(=O)CC(C)(C)C1(O)/C=C/C(C)=C\C(=O)O` (mixture of isomers) [abscisic acid (cis,trans, +/-)]: the neuronal differentiation score in the experiment on ReNCell VM [1] (library: Natural) is inactive: 0. In the experiment on ReNCell VM [2] (library: Natural), the “dopaminergic neuron differentiation score” value was inactive: 0.
As for `Cc1cc(C(C)(C)C)c(O)c(C(C)(C)C)c1`, the neuronal differentiation score in the experiment with ReNCell VM [1] (library: Spectrum) was inactive: 0. Also, the “dopaminergic neuron differentiation score” value in the experiment with ReNCell VM [2] (library: Spectrum) was inactive: 0.
With `CC(=O)/C(C)=N/O` [2,3-Butanedione monoxime], the neuronal differentiation score with ReNCell VM [1] (library: LOPAC) is inactive: 0. Moreover, the “dopaminergic neuron differentiation score” value in the experiment with ReNCell VM [2] (library: LOPAC) was inactive: 1.
For the molecule `CC(=O)Oc1cc(OC(C)=O)c2c(c1)O[C@H](c1ccc(OC(C)=O)c(OC(C)=O)c1)[C@@H](OC(C)=O)C2`, the neuronal differentiation score with ReNCell VM [1] (library: Spectrum) was inactive: 0. In the experiment on ReNCell VM [2] (library: Spectrum), the “dopaminergic neuron differentiation score” value was inactive: 0.
`CCCC(C(=O)OCCN(CC)CC)(c1ccccc1)c1ccccc1`: the neuronal differentiation score in the experiment on ReNCell VM [1] (library: Spectrum) is inactive: 0. Moreover, the “dopaminergic neuron differentiation score” value in the experiment on ReNCell VM [2] (library: Spectrum) was inactive: 0.
Turning to `O=C(O)Cc1ccc(OCCNC[C@H](O)c2ccccc2)cc1` [ZD 2079 hydrochloride], in the experiment on ReNCell VM [1] (library: Tocriscreen), the neuronal differentiation score is inactive: 0. In the experiment on ReNCell VM [2] (library: Tocriscreen), the “dopaminergic neuron differentiation score” value is inactive: 0.
As to `COc1ccc(CC2c3cc(OC)c(OC)cc3CC[N+]2(C)CCC(=O)OCCCCCOC(=O)CC[N+]2(C)CCc3cc(OC)c(OC)cc3C2Cc2ccc(OC)c(OC)c2)cc1OC` (stereo not given), the neuronal differentiation score with ReNCell VM [1] (library: Spectrum) is inactive: 0. Also, in the experiment with ReNCell VM [2] (library: Spectrum), the “dopaminergic neuron differentiation score” value is inactive: 0.
For the molecule `O=C(O)c1cccnc1` [Niacin], the neuronal differentiation score in the experiment on ReNCell VM [1] (library: Prestwick) was inactive: 0. The “dopaminergic neuron differentiation score” value in the experiment on ReNCell VM [2] (library: Prestwick) is inactive: 0.
For `O=C(O)c1cn(-c2ccc(F)cc2)c2cc(N3CCNCC3)c(F)cc2c1=O`, the neuronal differentiation score in the experiment with ReNCell VM [1] (library: Spectrum) was inactive: 0. Besides, the “dopaminergic neuron differentiation score” value with ReNCell VM [2] (library: Spectrum) is inactive: 0.
For the molecule `CO[C@H]1/C=C/O[C@@]2(C)Oc3c(C)c(O)c4c(O)c(c(/C=N/N5CCN(C6CCCC6)CC5)c(O)c4c3C2=O)NC(=O)/C(C)=C\C=C\[C@H](C)[C@H](O)[C@@H](C)[C@@H](O)[C@@H](C)[C@H](OC(C)=O)[C@@H]1C` [Rifapentine], in the experiment with ReNCell VM [1] (library: Prestwick), the neuronal differentiation score is inactive: 0. For the same molecule, the “dopaminergic neuron differentiation score” value in the experiment with ReNCell VM [2] (library: Prestwick) was inactive: 0.
Regarding `Nc1cc(N2CCCCC2)nc(N)[n+]1[O-]`, the neuronal differentiation score in the experiment on ReNCell VM [1] (library: Spectrum) is inactive: 0. For the same molecule, the “dopaminergic neuron differentiation score” value in the experiment with ReNCell VM [2] (library: Spectrum) was inactive: 0.
Take `CC(N)(Cc1ccc(O)c(O)c1)C(=O)O` [L-(-)- à-Methyldopa]: in the experiment with ReNCell VM [1] (library: Tocriscreen), the neuronal differentiation score was inactive: 0. In addition, the “dopaminergic neuron differentiation score” value in the experiment on ReNCell VM [2] (library: Tocriscreen) is inactive: 0.
As to `N=C1Sc2ccccc2C2=NCCCN12`, the neuronal differentiation score in the experiment on ReNCell VM [1] (library: LOPAC) was inactive: 0. For the same molecule, in the experiment on ReNCell VM [2] (library: LOPAC), the “dopaminergic neuron differentiation score” value is inactive: 0.
With `Nc1ccc2cc3ccc(N)cc3nc2c1`, the neuronal differentiation score with ReNCell VM [1] (library: Spectrum) is inactive: 0. The “dopaminergic neuron differentiation score” value with ReNCell VM [2] (library: Spectrum) was inactive: 0.
Take `CC1CN(S(=O)(=O)c2cccc3cnccc23)CCN1` (stereo not given): in the experiment on ReNCell VM [1] (library: LOPAC), the neuronal differentiation score is inactive: 0. Also, the “dopaminergic neuron differentiation score” value with ReNCell VM [2] (library: LOPAC) was inactive: 0.
`Cc1ccccc1N=Nc1ccc(NC(=O)c2ccnn2C)c(C)c1`: in the experiment on ReNCell VM [1] (library: Tocriscreen), the neuronal differentiation score was inactive: 0. For the same molecule, the “dopaminergic neuron differentiation score” value in the experiment with ReNCell VM [2] (library: Tocriscreen) was inactive: 0.
For the molecule `COc1cc2c(cc1OC)-c1cc3ccc(OC)c(OC)c3c[n+]1CC2`, the neuronal differentiation score with ReNCell VM [1] (library: Spectrum) was inactive: 0. In addition, in the experiment with ReNCell VM [2] (library: Spectrum), the “dopaminergic neuron differentiation score” value is inactive: 0.
Regarding `N#CC(C#N)=C(N)/C(C#N)=C/c1cc(O)c(O)c(O)c1` [Tyrphostin 51], in the experiment with ReNCell VM [1] (library: LOPAC), the neuronal differentiation score is inactive: 0. In addition, the “dopaminergic neuron differentiation score” value in the experiment with ReNCell VM [2] (library: LOPAC) is inactive: 0.
Turning to `CC/C(=C(/CC)c1ccc(O)cc1)c1ccc(O)cc1`, the neuronal differentiation score in the experiment with ReNCell VM [1] (library: Spectrum) is inactive: 0. Further, the “dopaminergic neuron differentiation score” value in the experiment on ReNCell VM [2] (library: Spectrum) is inactive: 0.
Turning to `CC1=CCC2C(C)(C)C(=O)CCC2(C)C1COc1ccc2ccc(=O)oc2c1` (stereo not given) [conferone], in the experiment on ReNCell VM [1] (library: Natural), the neuronal differentiation score was inactive: 0. In addition, the “dopaminergic neuron differentiation score” value with ReNCell VM [2] (library: Natural) was inactive: 0.
